# Laboratory results reported in PubChem BioAssay AID206 (DTP/NCI, 2004).
# The list does not hold the whole screen: it is rich in T/C values a quarter to a half above the control, in often repeated tests (any T/C) and in doses without a T/C. Other doses and runs of a compound stand elsewhere. T/C: endpoint of the treated group in % of that of the vehicle group. Schedules are NCI's codes, read here as Q, the interval in days (D) or hours (H), X, the number of doses. Some T/C values carry the count of animals alive at the toxicity check (mostly the fifth day); where none is given, no animal had died by that day. Some doses have a count of surviving animals in place of a T/C: the source files T/C as zero there, which appears to mark a toxic dose or a test without result, not a measured value. Counts of survivors are from the toxicity check (mostly the fifth day) where no day follows; animals may have died later. Some entries hold several experiments; their values stand side by side, smallest first. Starred links: 1 amine or outer side, 2 acyl side, 3 side chain; linkers in the order of their positions; H or OH if unused. Positions of bridges follow the written chain, without caps; N, C: chain ends. Non-standard residues stand in square brackets, D forms with d. Residues, ends and D or L forms follow the SMILES beside them. Chains are numbered I, II in the order given. Actinocin(1to9) = Cc1c2oc3c(C)ccc(C(=O)[*:2])c3nc-2c(C(=O)[*:1])c(N)c1=O; NMeV = CN[CH](C(=O)O)C(C)C; Aze = O=C(O)[CH]1CCN1; Sar = CNCC(=O)O
# Tested on: nude mice, HT29 intrarenal xenograft, tumor weight T/C
# Test: NCI In Vivo Anticancer Drug Screen. Data for tumor model HT29;CX-1 Human Adenocarcinoma (MER+) (intrarenal inoculation) in NU/NU Swiss (nude) mice
# Conditions: T/C endpoint: mean tumor weight change, higher T/C = larger tumour
# How it was run: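 Readout: treated/vehicle-control ratio of the measured endpoint (tumor size or survival) in transplanted-tumor mice.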
# [1] = dose: 600.0 mg/kg/injection, schedule: Q04DX004 (sc), vehicle: saline with Tween-80
smiles,measurement,setting,value
CCCCC(=O)OCC(=O)[C@]1(O)Cc2c(O)c3c(c(O)c2[C@@H](OC2CC(NC(=O)C(F)(F)F)C(O)C(C)O2)C1)C(=O)c1c(OC)cccc1C3=O (stereo partly drawn),survivor count,"dose: 512.0 mg/kg/injection, schedule: Q01DX010 (sc), vehicle: distilled water + Tween-80",1 of 3 on day 11
COc1cccc2c1C(=O)c1c(O)c3c(c(O)c1C2=O)C[C@@](O)(C(=O)COC(=O)c1cccnc1)C[C@@H]3OC1CC(N)C(O)C(C)O1 (stereo partly drawn),survivor count,"dose: 24.0 mg/kg/injection, schedule: Q04DX004 (sc), vehicle: saline",0 of 6 on day 15
same,survivor count,"dose: 48.0 mg/kg/injection, schedule: Q04DX004 (sc), vehicle: saline",0 of 6 on day 15
Brc1ccc(C[N+]23CN4CN(CN(C4)C2)C3)cc1,survivor count,[1],2 of 6 on day 15
same,survivor count,"dose: 1200.0 mg/kg/injection, schedule: Q04DX004 (sc), vehicle: saline with Tween-80",0 of 6 on day 15
N#CC(=C1C=CC(=NO)C=C1)c1ccc(Cl)cc1,T/C,"dose: 200.0 mg/kg/injection, schedule: Q04DX004 (sc), vehicle: saline with Tween-80, evaluated on day 15",125 % of control
N[C@H](C(=O)O)[C@@H]1CC(Cl)=NO1,survivor count,"dose: 16.0 mg/kg/injection, schedule: Q01DX010 (sc), vehicle: saline",1 of 3 on day 11
same,survivor count,"dose: 32.0 mg/kg/injection, schedule: Q01DX010 (sc), vehicle: saline",1 of 3 on day 11
COc1ccc(CC2C(=O)NC(C)C(=O)N(C)C3C(=O)N(C)C(Cc4ccc(O)c(c4)Oc4ccc(cc4)C3O)C(=O)NC(C)C(=O)NC(C)C(=O)N2C)cc1 (stereo not drawn),T/C,"dose: 0.5 mg/kg/injection, schedule: Q01DX010 (sc), vehicle: saline with Tween-80, evaluated on day 11",134 % of control
same,survivor count,"dose: 4.0 mg/kg/injection, schedule: Q01DX010 (sc), vehicle: saline with Tween-80",0 of 3 on day 11
same,survivor count,"dose: 8.0 mg/kg/injection, schedule: Q01DX010 (sc), vehicle: saline with Tween-80",0 of 3 on day 11
Cc1ncc(CNC(=O)N(CCCl)N=O)c(N)n1,survivor count,"dose: 37.5 mg/kg/injection, schedule: Q04DX004 (sc), vehicle: saline",1 of 6 on day 15
same,survivor count,"dose: 75.0 mg/kg/injection, schedule: Q04DX004 (sc), vehicle: saline",0 of 6 on day 15
NC(CCl)=NCC12CC3CC(CC(C3)C1)C2,survivor count,"dose: 150.0 mg/kg/injection, schedule: Q04DX004 (sc), vehicle: Klucel (hydroxypropylcellulose) (HPC)",2 of 6 on day 15
same,survivor count,"dose: 300.0 mg/kg/injection, schedule: Q04DX004 (sc), vehicle: Klucel (hydroxypropylcellulose) (HPC)",0 of 6 on day 15
O=NN(CCCl)C(=O)NC1[C@H](O)CCC[C@@H]1O (stereo partly drawn),survivor count,"dose: 20.0 mg/kg/injection, schedule: Q04DX004 (sc), vehicle: saline",2 of 6 on day 15
same,survivor count,"dose: 40.0 mg/kg/injection, schedule: Q04DX004 (sc), vehicle: saline",0 of 6 on day 15
same,survivor count,"dose: 80.0 mg/kg/injection, schedule: Q04DX004 (sc), vehicle: saline",0 of 6 on day 15
CCNC(=O)[B-][N+](C)(C)C,survivor count,"dose: 800.0 mg/kg/injection, schedule: Q04DX004 (sc), vehicle: saline",0 of 6 on day 15
S=c1nc[nH]c2nc[nH]c12,T/C,"dose: 25.0 mg/kg/injection, schedule: Q01DX010 (sc), vehicle: Klucel (hydroxypropylcellulose) (HPC), evaluated on day 11",131 % of control
same,survivor count,"dose: 50.0 mg/kg/injection, schedule: Q01DX010 (sc), vehicle: Klucel (hydroxypropylcellulose) (HPC)",0 of 3 on day 11 and 1 of 3 on day 11
same,survivor count,"dose: 100.0 mg/kg/injection, schedule: Q01DX010 (sc), vehicle: Klucel (hydroxypropylcellulose) (HPC)",0 of 3 on day 11
same,survivor count,"dose: 200.0 mg/kg/injection, schedule: Q01DX010 (sc), vehicle: Klucel (hydroxypropylcellulose) (HPC)",0 of 3 on day 11
COc1ccc2[nH]c3ccc4cc[n+](CCN5CCC(C6CCN(CC[n+]7ccc8ccc9[nH]c%10ccc(OC)cc%10c9c8c7)CC6)CC5)cc4c3c2c1,T/C,"dose: 75.0 mg/kg/injection, schedule: Q04DX004 (sc), vehicle: Klucel (hydroxypropylcellulose) (HPC), evaluated on day 15",147 % of control
CC/C(=C(/CC)c1ccc(O)cc1)c1ccc(O)cc1,T/C,"dose: 75.0 mg/kg/injection, schedule: Q04DX004 (sc), vehicle: saline with Tween-80, evaluated on day 15",130 % of control
same,survivor count,[1],2 of 6 on day 15
CCOC(=O)c1cn(C)c2c1C(O)=C(C(=O)OC)CC(=O)N2,T/C,"dose: 900.0 mg/kg/injection, schedule: Q04DX004 (sc), vehicle: saline with Tween-80, evaluated on day 15",131 % of control [5 of 6 alive on day 15]
CCC(C)Nc1ccc(N)cc1 (stereo not drawn),T/C,"dose: 18.0 mg/kg/injection, schedule: Q04DX004 (sc), vehicle: Klucel (hydroxypropylcellulose) (HPC), evaluated on day 15",125 % of control
Cc1cc(C)c(-c2cc(O)c(C)cc2O)c(C)c1,T/C,"dose: 600.0 mg/kg/injection, schedule: Q04DX004 (sc), vehicle: Klucel (hydroxypropylcellulose) (HPC), evaluated on day 15",128 % of control
O=NN(CCCl)C(=O)NCCO,survivor count,"dose: 25.0 mg/kg/injection, schedule: Q04DX004 (sc), vehicle: water",1 of 3 on day 15
same,survivor count,"dose: 50.0 mg/kg/injection, schedule: Q04DX004 (sc), vehicle: water",0 of 3 on day 15
same,survivor count,"dose: 100.0 mg/kg/injection, schedule: Q04DX004 (sc), vehicle: water",0 of 3 on day 15
NC(=O)c1cn(C2OC(CO)C(O)C2O)c2ncnc(N)c12 (stereo not drawn),survivor count,"dose: 4.0 mg/kg/injection, schedule: Q01DX010 (sc), vehicle: saline",0 of 3 on day 11
same,survivor count,"dose: 8.0 mg/kg/injection, schedule: Q01DX010 (sc), vehicle: saline",0 of 3 on day 11
"Cc1c2oc3c(C)ccc(C(=O)NC4C(=O)NC(C(C)C)C(=O)N5CCCC5C(=O)N(C)CC(=O)N(C)C(C(C)C)C(=O)OC4C)c3nc-2c(C(=O)NC2C(=O)NC(C(C)C)C(=O)N3CCC3C(=O)N(C)CC(=O)N(C)C(C(C)C)C(=O)OC2C)c(N)c1=O (stereo not drawn) (I: TV[Aze][Sar][NMeV] / II: TVP[Sar][NMeV]; ester I:1-I:C, II:1-II:C; linker I:N-II:N via Actinocin(1to9); configuration not given here)",survivor count,"dose: 2.0 mg/kg/injection, schedule: Q04DX004 (sc), vehicle: saline + alcohol",1 of 6 on day 15
same,survivor count,"dose: 4.0 mg/kg/injection, schedule: Q04DX004 (sc), vehicle: saline + alcohol",0 of 6 on day 15
COCC1OC2OC3C(COC)OC(OC4C(COC)OC(OC5C(COC)OC(OC6C(COC)OC(OC7C(COC)OC(OC8C(COC)OC(OC1C(O)C2O)C(O)C8O)C(O)C7O)C(O)C6O)C(O)C5O)C(O)C4O)C(O)C3O (stereo not drawn) (tested in a mixture with another compound),T/C,"dose: 400.0 mg/kg/injection, schedule: Q04DX004 (sc), vehicle: Klucel (hydroxypropylcellulose) (HPC), evaluated on day 15",137 % of control
same,T/C,"dose: 800.0 mg/kg/injection, schedule: Q04DX004 (sc), vehicle: Klucel (hydroxypropylcellulose) (HPC), evaluated on day 15",140 % of control [5 of 6 alive on day 15]
O=C1C(=O)c2ccccc2C(O)=C1CC=C(Cl)Cl,T/C,"dose: 50.0 mg/kg/injection, schedule: Q01DX010 (sc), vehicle: water, evaluated on day 11",139 % of control
same,T/C,"dose: 100.0 mg/kg/injection, schedule: Q01DX010 (sc), vehicle: water, evaluated on day 11",128 % of control [2 of 2 alive on day 11]
same,survivor count,"dose: 800.0 mg/kg/injection, schedule: Q01DX010 (sc), vehicle: water",0 of 3 on day 11
CC(C)[C@](O)(C(=O)OCC1=CCN2CC[C@@H](O)[C@@H]12)[C@H](C)O,T/C,"dose: 300.0 mg/kg/injection, schedule: Q04DX004 (sc), vehicle: water, evaluated on day 15",143 % of control
same,T/C,"dose: 600.0 mg/kg/injection, schedule: Q04DX004 (sc), vehicle: water, evaluated on day 15",149 % of control [5 of 6 alive on day 15]
same,T/C,"dose: 1200.0 mg/kg/injection, schedule: Q04DX004 (sc), vehicle: water, evaluated on day 15",137 % of control [4 of 6 alive on day 15]
same,survivor count,"dose: 2400.0 mg/kg/injection, schedule: Q04DX004 (sc), vehicle: water",1 of 6 on day 15
CCC1CCCCN1C(=S)N/N=C(\C)c1ccccn1 (stereo not drawn),survivor count,"dose: 150.0 mg/kg/injection, schedule: Q04DX004 (sc), vehicle: saline with Tween-80",0 of 6 on day 15
same,survivor count,"dose: 300.0 mg/kg/injection, schedule: Q04DX004 (sc), vehicle: saline with Tween-80",0 of 6 on day 15
O=C1CC2(C(=O)N1CN1CCCCC1)c1ccccc1-c1ccccc12,T/C,"dose: 200.0 mg/kg/injection, schedule: Q04DX004 (sc), vehicle: Klucel (hydroxypropylcellulose) (HPC), evaluated on day 15",131 % of control
